Measurements reported in PubChem BioAssay AID1224830 (NIAID, 2016).

Assay: 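Genes whose knock-down alters the TNF-alpha reporter response to LPS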 (primary screen)
Cell system: human THP-1 monocytic leukaemia cells, TNF dual-luciferase reporter clone, PMA-differentiated to macrophage-like cells
Knock-down reagent: siRNA pool against human genes, 50 nM
Duration: LPS for 4 h, given about 3 days after siRNA transfection
Conditions: bacterial LPS (TLR4 ligand), 10 ng/ml
Measurement: 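TNF firefly reporter luminescence divided by renilla, normalised to the plate median, then turned into a robust z-score for each replicate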
Scale: TNF reporter robust z-score: higher = stronger TNF reporter response to LPS
Hit rule: 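a well is active when its z-score exceeds 2.8 or falls below -1.5; control wells carry no call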
Shown is an unselected part of about 18,000 reagents. Of all reagents, about 2,900 (16%) were called active. 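Calls are made per well; low scores hint the gene aids the LPS response, high scores that it dampens it.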 Unmarked entries are inactive. Repeated entries: four replicate wells of each siRNA pool.

| Gene | TNF reporter robust z-score |
| --- | --- |
| SDE2 | -1.67 (active) |
| SDE2 | -1.34 |
| SDE2 | -1.8 (active) |
| SDE2 | -1.49 |
| PLAUR | -0.09 |
| PLAUR | 0.99 |
| PLAUR | -0.04 |
| PLAUR | 0.44 |
| NOS3 | -0.16 |
| NOS3 | -0.29 |
| NOS3 | -0.28 |
| NOS3 | 0.02 |
| N4BP1 | 0.87 |
| N4BP1 | 1.55 |
| N4BP1 | -0.21 |
| RBMXL2 | -0.12 |
| RBMXL2 | 1.22 |
| RBMXL2 | 0.44 |
| RBMXL2 | -0.53 |
| SLC28A3 | 0.65 |
| SLC28A3 | 1.15 |
| SLC28A3 | 0.37 |
| SLC28A3 | 0.8 |
| SAXO4 | -0.13 |
| SAXO4 | 0.4 |
| SAXO4 | -0.38 |
| SAXO4 | 0.07 |
| PDHX | -0.81 |
| PDHX | -1.11 |
| PDHX | -0.91 |
| PDHX | -0.22 |
| SVBP | -0.01 |
| SVBP | -1.33 |
| SVBP | -0.03 |
| SVBP | -0.88 |
| RHCE | -0.65 |
| RHCE | -1.02 |
| RHCE | -0.46 |
| RHCE | -0.59 |
| MYD88 | -1.86 (active) |
| MYD88 | -1.6 (active) |
| MYD88 | -1.48 |
| MYD88 | -1.45 |
| PTPN11 | 0.06 |
| PTPN11 | 1.51 |
| PTPN11 | -0.66 |
| PTPN11 | -0.71 |
| SLC5A10 | 1.15 |
| SLC5A10 | 2.2 |
| SLC5A10 | 3.4 (active) |
| SLC5A10 | 1.5 |
| USP2 | -0.42 |
| USP2 | 0.52 |
| USP2 | -0.16 |
| USP2 | 1.03 |
| IRF8 | 0.36 |
| IRF8 | -0.5 |
| IRF8 | -1.13 |
| HSD11B2 | 0.66 |
| HSD11B2 | 0.86 |
| HSD11B2 | -0.06 |
| HSD11B2 | 1.24 |
| QTGAL | -0.03 |
| QTGAL | 0.08 |
| QTGAL | 0.89 |
| QTGAL | 0.46 |
| SMG6 | 1.17 |
| SMG6 | -0.77 |
| SMG6 | -0.76 |
| SMG6 | -0.71 |
| ZBTB4 | -0.52 |
| ZBTB4 | -1.27 |
| ZBTB4 | -1.22 |
| ZBTB4 | -1.37 |
| H2AC4 | -0.6 |
| H2AC4 | 0.57 |
| H2AC4 | -0.95 |
| H2AC4 | -0.9 |
| MAGEA12 | 3.39 (active) |
| MAGEA12 | 3.33 (active) |
| MAGEA12 | 1.03 |
| MAGEA12 | 5.45 (active) |
| RBM33 | -0.65 |
| RBM33 | -0.52 |
| RBM33 | -1.32 |
| RBM33 | -0.92 |
| NDN | -0.79 |
| NDN | -0.97 |
| NDN | -0.8 |
| NDN | -0.42 |
| FARP1 | -1.1 |
| FARP1 | -0.48 |
| FARP1 | -0.02 |
| FARP1 | -0.55 |
| SOWAHC | 0.22 |
| SOWAHC | 0.41 |
| SOWAHC | -0.23 |
| SOWAHC | 0.02 |
| ZNF274 | -0.88 |
| ZNF274 | -0.64 |
| ZNF274 | -0.25 |
| ZNF274 | -0.49 |
| GXYLT2 | 1.22 |
| GXYLT2 | 1.71 |
| GXYLT2 | -0.1 |
| GXYLT2 | 1.37 |
| CYB5R4 | -0.28 |
| CYB5R4 | -0.19 |
| CYB5R4 | -0.39 |
| CYB5R4 | 0.36 |

Copied from above (10 entries):
| Gene | TNF reporter robust z-score |
| --- | --- |
| MYD88 | -1.86 (active) |
| MYD88 | -1.6 (active) |
| MYD88 | -1.48 |
| MYD88 | -1.45 |
| PTPN11 | 0.06 |
| PTPN11 | 1.51 |
| PTPN11 | -0.66 |
| PTPN11 | -0.71 |
| SLC5A10 | 1.15 |
| SLC5A10 | 2.2 |
